Data on 1 molecule can be found in PMC11172885.

The chains behind the UniProt entries cited, without tags or fusion partners.
UniProt Q6IQ55: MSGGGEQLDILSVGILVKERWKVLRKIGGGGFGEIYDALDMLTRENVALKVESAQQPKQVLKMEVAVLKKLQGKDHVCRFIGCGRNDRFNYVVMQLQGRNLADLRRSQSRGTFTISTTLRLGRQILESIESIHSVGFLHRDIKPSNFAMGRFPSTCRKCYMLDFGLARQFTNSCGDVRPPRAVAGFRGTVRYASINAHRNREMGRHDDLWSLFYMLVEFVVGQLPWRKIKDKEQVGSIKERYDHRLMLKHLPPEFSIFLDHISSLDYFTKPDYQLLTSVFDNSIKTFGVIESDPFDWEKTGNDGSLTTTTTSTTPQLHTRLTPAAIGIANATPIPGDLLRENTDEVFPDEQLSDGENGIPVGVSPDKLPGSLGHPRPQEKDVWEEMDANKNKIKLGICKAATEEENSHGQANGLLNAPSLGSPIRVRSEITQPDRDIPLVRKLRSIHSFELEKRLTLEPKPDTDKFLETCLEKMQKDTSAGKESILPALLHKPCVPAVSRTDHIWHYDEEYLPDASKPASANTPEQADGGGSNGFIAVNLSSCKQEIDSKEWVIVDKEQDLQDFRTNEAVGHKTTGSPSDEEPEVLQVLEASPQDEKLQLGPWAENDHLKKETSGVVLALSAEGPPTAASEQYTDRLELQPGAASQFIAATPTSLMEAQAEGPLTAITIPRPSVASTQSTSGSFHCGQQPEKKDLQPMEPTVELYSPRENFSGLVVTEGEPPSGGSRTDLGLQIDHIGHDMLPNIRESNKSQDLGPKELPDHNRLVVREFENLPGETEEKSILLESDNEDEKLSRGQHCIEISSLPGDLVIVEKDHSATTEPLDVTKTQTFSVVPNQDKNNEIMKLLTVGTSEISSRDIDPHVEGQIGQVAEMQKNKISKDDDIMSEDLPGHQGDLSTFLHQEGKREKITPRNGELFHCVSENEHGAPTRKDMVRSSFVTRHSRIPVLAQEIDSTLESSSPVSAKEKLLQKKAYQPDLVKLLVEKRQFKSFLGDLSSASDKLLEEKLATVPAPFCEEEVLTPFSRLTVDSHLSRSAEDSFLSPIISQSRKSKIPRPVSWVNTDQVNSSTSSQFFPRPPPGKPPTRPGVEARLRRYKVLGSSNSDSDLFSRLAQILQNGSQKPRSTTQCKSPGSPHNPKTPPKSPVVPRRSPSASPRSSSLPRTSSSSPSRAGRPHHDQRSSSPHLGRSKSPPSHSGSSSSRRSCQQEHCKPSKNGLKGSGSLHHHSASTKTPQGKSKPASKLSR

No constants are given. Whether binding was seen depends on the method and setting. Binding seen in cells or lysates may run through a third protein. Some entries that bind do so weakly or less than the wild type.

In this assay the target is TTBK2 (tau tubulin kinase 2) (human (endogenous in RCTE)) (UniProt Q6IQ55). Briefly: co-IP; anti-SMYD3 and anti-TTBK2 antibodies and isotype controls coupled to protein A agarose beads; cell lysates (1% Triton X-100, 150 mM NaCl, pH 7.4) incubated overnight at 4 °C; washed with lysis buffer containing an additional 300 mM NaCl; Western blot. In general terms: Immunoblotting shows a protein as a band on a membrane.

B1: SET- and MYND-domain-containing protein 3 (SMYD3) (protein, UniProt Q9H7B4 1-428)
chain: MEPLKVEKFATAKRGNGLRAVTPLRPGELLFRSDPLAYTVCKGSRGVVCDRCLLGKEKLMRCSQCRVAKYCSAKCQKKAWPDHKRECKCLKSCKPRYPPDSVRLLGRVVFKLMDGAPSESEKLYSFYDLESNINKLTEDKKEGLRQLVMTFQHFMREEIQDASQLPPAFDLFEAFAKVICNSFTICNAEMQEVGVGLYPSISLLNHSCDPNCSIVFNGPHLLLRAVRDIEVGEELTICYLDMLMTSEERRKQLRDQYCFECDCFRCQTQDKDADMLTGDEQVWKEVQESLKKIEELKAHWKWEQVLAMCQAIISSNSERLPDINIYQLKVLDCAMDACINLGLLEEALFYGTRTMEPYRIFFPGSHPVRGVQVMKVGKLQLHQGMFPQAMKNLRLAFDIMRVTHGREHSLIEDLILLLEECDANIRAS
Take B1: the binding result is “binds”.
